These are yes or no findings as the source states them, for the method shown. In cells and extracts the contact can be indirect. Some results given as binding are weak or reduced against the parent protein; the word gives no strength.
Tests used:
[1] = molecular target: NTSR2-AviTag (neurotensin receptor 2 with an AviTag, biotinylated by BirA) (UniProt O95665); experiment: pull-down; biotinylated AviTag-NTSR2 (whole or truncated) isolated on streptavidin-coated magnetic beads from RIPA lysates of transfected HEK293T cells, 2 h at 4 °C; TRKB detected by immunoblot; cells with 40 µM biotin, with or without BDNF
[2] = molecular target: NTSR2 (neurotensin receptor 2), untagged, expressed in HEK293T cells (UniProt O95665); experiment: proximity ligation; Duolink PLA for NTSR2 and TRKB on methanol-fixed HEK293T cells transfected with a plasmid encoding TRKB and NTSR2, with or without BDNF

By UniProt entry, the sequences of proteins in these tests, tags left out. Residues count along the entry.
UniProt O95665: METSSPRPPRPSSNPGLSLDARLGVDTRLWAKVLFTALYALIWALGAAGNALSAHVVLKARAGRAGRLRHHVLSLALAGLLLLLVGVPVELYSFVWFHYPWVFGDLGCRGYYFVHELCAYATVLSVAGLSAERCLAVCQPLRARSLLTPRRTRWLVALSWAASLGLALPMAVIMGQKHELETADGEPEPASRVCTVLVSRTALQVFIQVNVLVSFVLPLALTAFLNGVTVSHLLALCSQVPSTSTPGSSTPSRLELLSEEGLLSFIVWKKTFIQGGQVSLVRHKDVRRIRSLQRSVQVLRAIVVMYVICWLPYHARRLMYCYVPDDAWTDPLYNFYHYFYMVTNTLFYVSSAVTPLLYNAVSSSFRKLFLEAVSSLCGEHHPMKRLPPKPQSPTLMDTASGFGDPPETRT
UniProt Q16620, residues 32-822: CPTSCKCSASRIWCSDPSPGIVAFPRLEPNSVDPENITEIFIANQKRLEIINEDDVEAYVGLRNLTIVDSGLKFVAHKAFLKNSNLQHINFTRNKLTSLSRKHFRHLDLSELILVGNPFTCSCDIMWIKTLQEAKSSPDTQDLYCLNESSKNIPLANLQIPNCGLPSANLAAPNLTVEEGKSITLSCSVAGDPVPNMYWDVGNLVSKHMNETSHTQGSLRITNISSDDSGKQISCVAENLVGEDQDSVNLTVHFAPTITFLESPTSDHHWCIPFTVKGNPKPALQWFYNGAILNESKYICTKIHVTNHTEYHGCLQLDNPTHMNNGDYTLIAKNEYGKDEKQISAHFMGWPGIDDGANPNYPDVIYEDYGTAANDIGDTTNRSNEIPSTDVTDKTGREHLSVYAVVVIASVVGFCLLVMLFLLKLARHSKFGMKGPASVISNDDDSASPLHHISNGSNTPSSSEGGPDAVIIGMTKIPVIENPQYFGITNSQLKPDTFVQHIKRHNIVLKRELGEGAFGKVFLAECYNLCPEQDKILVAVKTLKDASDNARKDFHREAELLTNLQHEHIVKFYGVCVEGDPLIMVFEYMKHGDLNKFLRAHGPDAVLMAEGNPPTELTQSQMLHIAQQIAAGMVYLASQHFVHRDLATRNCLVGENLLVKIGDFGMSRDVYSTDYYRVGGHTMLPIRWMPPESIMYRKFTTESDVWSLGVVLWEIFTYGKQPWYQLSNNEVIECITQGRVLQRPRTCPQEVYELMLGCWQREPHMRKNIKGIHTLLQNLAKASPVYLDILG

Substance: TRKB (tropomyosin related kinase B), expressed in HEK293T cells (from UniProt Q16620 32-822) (receptor)
- binding [1]: binds
- binding [2]: binds

From publication PMC10937676, “Targeting the NTSR2/TrkB oncogenic pathway in chronic lymphocytic leukemia” (Scientific Reports, 2024)
